Record: PubChem BioAssay AID1259308 (NCATS, 2017)
Shown is an unselected part of about 59,000 deposited reagents. About 1,510 of all reagents (2.6%) were called active. 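Calls use total luciferase alone and ignore viability, so some active siRNAs may act by altering cell number.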 A number with no mark means an inactive call. The numbers tell different reagents against one gene apart. Not all columns of the deposit are shown.

Screen: 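Genes whose loss raises luciferase production in HEK293 cells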 (primary screen)
System: human HEK293 embryonic kidney cells stably expressing firefly luciferase (HEK-CMV-Luc2-Hygro)
Reagent: single siRNA against human genes, 0.8 pmol siRNA per well
Timing: 72 h
Measurement: 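Reporter luminescence and viable-cell signal on separate replicate plates, given as percent of non-targeting control and median/MAD z-scores, plus per-cell luciferase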
Scale: total luciferase, z-score and total luciferase, % of control: higher = more reporter protein produced; luciferase per cell, z-score: higher = more reporter output per viable cell
Call rule: 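An siRNA counts as active if its total luciferase robust z-score exceeds 3; genes with two or more such siRNAs out of three were retested with fresh siRNAs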
Meaning of the calls: active = raised luciferase; inactive = no rise

Gene	reagent no.	total luciferase, z-score	total luciferase, % of control	luciferase per cell, z-score
EIF4H	1	0.453	90.9	-0.222
EIF4H	2	-0.263	76.6	0.136
EIF4H	3	-1.59	50.3	-1.76
RUBCN	1	0.588	93.6	-0.0149
RUBCN	2	-0.314	75.6	-0.322
RUBCN	3	-0.93	63.4	-0.0662
PSME1	1	-0.566	70.6	-0.698
PSME1	2	2.05	123	2.24
PSME1	3	2.24	127	1.89
GTF2H5	1	-1.68	48.4	-0.928
GTF2H5	2	0.288	87.6	0.335
GTF2H5	3	-0.472	72.5	-0.454
FAM81B	1	0.739	96.6	0.161
FAM81B	2	0.682	95.5	0.0778
FAM81B	3	-0.839	65.2	-0.109
RBM24	1	0.183	85.5	-0.352
RBM24	2	-0.489	72.2	-0.648
RBM24	3	1.24	106	1.12
SLC6A13	1	-0.681	68.3	-0.695
SLC6A13	2	-1.21	57.8	-2.19
SLC6A13	3	1.48	111	0.476
ABTB1	1	-0.255	76.8	-0.435
ABTB1	2	0.0675	83.2	0.123
ABTB1	3	0.457	91	-0.498
LRRC38	1	0.272	87.3	0.603
LRRC38	2	-0.321	75.5	-0.769
LRRC38	3	-1.36	54.9	-1.92
EXTL3	1	-0.366	74.6	-0.553
EXTL3	2	0.424	90.3	0.137
EXTL3	3	-1.22	57.5	-0.6
NLGN4X	1	-0.841	65.2	0.726
NLGN4X	2	0.232	86.5	0.531
NLGN4X	3	5.43 (active)	190	4.09
ULBP1	1	1.28	107	0.798
ULBP1	2	-0.269	76.5	-1.16
ULBP1	3	0.81	98	0.194
EPC1	1	-0.195	78	-0.245
EPC1	2	1.4	110	1.2
EPC1	3	1.58	113	0.509
TXLNB	1	-3.02	21.9	-3.64
TXLNB	2	-1.08	60.3	-1.11
TXLNB	3	0.627	94.4	1.46
PPP2R5B	1	-0.839	65.2	-0.818
PPP2R5B	2	1.66	115	0.583
PPP2R5B	3	-1.66	48.8	-1.82
TEX28	1	0.0618	83.1	0.185
TEX28	2	-1.26	56.8	-1.31
TEX28	3	1.11	104	1.16
BMP8A	1	-0.73	67.4	0.718
BMP8A	2	-0.078	80.3	-0.214
BMP8A	3	0.189	85.6	-0.603
TAS2R60	1	0.856	98.9	1.15
TAS2R60	2	-1.63	49.5	0.0995
TAS2R60	3	-0.652	68.9	-0.115
LINC00927	1	-0.744	67.1	0.061
LINC00927	2	-0.587	70.2	0.0595
LINC00927	3	0.562	93.1	0.639

7 entries already listed, sorted by “luciferase per cell, z-score”, lowest first:
Gene	reagent no.	total luciferase, z-score	total luciferase, % of control	luciferase per cell, z-score
GTF2H5	1	-1.68	48.4	-0.928
PSME1	1	-0.566	70.6	-0.698
GTF2H5	3	-0.472	72.5	-0.454
RUBCN	3	-0.93	63.4	-0.0662
GTF2H5	2	0.288	87.6	0.335
PSME1	3	2.24	127	1.89
PSME1	2	2.05	123	2.24
